# Assay results published in publication PMC5792031.
# Sequences of proteins named here, by UniProt entry; tags and fusion partners are left off.
# UniProt O00629: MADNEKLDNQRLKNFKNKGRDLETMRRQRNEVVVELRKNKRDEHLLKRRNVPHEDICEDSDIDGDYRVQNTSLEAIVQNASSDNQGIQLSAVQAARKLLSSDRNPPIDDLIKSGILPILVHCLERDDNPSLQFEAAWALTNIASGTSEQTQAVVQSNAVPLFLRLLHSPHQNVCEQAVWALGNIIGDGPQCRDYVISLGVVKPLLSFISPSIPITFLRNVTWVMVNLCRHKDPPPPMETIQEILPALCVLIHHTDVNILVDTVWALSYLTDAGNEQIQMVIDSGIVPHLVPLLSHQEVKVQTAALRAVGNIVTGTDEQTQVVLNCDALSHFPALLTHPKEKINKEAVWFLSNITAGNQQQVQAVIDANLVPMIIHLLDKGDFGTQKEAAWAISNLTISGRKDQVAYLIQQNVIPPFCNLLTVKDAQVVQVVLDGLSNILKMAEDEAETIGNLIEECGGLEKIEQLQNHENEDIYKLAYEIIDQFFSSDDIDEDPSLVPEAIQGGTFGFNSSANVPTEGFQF
# UniProt P52294: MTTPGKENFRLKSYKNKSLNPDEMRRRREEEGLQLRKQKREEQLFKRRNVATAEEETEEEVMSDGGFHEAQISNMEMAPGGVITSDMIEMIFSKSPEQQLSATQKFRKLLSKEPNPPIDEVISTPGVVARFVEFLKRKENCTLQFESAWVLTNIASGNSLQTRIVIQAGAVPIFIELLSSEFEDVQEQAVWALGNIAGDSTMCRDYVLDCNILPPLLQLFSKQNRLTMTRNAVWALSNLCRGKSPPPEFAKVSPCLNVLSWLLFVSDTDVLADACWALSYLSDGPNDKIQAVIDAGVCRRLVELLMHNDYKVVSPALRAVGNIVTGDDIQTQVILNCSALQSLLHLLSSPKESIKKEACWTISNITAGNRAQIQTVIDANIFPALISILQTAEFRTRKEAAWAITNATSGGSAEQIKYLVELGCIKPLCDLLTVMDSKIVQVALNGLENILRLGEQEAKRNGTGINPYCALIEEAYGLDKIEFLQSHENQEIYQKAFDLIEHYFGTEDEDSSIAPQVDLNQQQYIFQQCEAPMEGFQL
# UniProt P15682: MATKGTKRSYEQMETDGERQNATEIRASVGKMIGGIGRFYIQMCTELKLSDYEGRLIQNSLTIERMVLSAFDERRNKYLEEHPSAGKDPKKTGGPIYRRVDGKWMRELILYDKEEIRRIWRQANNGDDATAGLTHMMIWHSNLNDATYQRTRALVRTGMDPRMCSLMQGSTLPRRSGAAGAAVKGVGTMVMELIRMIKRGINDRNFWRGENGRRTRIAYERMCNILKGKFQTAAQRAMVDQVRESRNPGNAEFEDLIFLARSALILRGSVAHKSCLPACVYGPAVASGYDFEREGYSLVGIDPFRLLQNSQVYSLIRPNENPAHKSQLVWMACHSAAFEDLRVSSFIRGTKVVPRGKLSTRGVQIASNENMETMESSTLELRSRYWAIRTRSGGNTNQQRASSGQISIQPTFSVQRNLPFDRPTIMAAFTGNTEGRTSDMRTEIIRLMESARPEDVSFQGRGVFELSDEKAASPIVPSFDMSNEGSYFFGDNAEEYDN
# Results are given in words; binding and its absence hold for the method and conditions named. In cells and extracts the contact can be indirect. Some entries that bind do so weakly or less than the wild type. For some assays here: Where a sequence is shown, tags or fusion partners need not be part of it.
# T1: Flag-tagged PLSCR1 (human) (UniProt O15162)
# T1 sequence: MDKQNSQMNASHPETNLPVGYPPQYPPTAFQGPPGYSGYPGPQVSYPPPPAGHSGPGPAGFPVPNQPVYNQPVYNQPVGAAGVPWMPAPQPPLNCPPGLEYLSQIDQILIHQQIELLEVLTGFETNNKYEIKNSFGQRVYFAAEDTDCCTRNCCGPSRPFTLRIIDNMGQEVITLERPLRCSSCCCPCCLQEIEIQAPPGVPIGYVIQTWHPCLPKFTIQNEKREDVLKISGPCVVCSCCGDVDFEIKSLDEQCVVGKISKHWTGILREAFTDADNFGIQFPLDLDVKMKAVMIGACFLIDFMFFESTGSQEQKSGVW
# T2: GST-PLSCR1 (human) (UniProt O15162)
# T2 sequence: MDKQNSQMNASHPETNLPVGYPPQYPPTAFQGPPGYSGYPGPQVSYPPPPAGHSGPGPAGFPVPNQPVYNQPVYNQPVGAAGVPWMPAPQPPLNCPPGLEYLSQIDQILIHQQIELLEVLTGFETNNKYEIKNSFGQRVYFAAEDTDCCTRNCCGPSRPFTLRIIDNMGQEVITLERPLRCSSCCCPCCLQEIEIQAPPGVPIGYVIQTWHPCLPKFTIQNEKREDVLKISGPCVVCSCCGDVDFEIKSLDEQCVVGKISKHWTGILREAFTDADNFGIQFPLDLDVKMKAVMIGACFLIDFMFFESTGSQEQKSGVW
# T3: PLSCR1, endogenous in A549 cells (human (endogenous in A549)) (UniProt O15162)
# T3 sequence: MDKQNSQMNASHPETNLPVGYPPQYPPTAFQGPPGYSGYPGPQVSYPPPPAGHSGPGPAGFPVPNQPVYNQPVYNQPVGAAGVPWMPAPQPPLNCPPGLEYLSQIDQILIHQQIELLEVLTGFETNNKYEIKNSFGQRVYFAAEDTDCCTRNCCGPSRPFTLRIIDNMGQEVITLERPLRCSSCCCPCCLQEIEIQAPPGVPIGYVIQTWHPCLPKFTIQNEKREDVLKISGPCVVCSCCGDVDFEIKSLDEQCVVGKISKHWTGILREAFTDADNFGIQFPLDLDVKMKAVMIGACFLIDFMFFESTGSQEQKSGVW
# Columns and labels:
# [1] = biological target: T1, Flag-tagged PLSCR1 (human); assay: co-IP
# [2] = biological target: Myc-tagged importin α3 (human) (UniProt O00629); assay: co-IP
# [3] = biological target: Myc-tagged importin α5 (human) (UniProt P52294); assay: co-IP
# [4] = biological target: Myc-tagged importin α7 (human) (UniProt O60684); assay: co-IP
# [5] = biological target: T2, GST-PLSCR1 (human); assay: pull-down; only the target purified
# [6] = biological target: T3, PLSCR1, endogenous in A549 cells (human (endogenous in A549)); assay: co-IP
# [7] = biological target: V5-tagged WSN NP (influenza A virus A/WSN/33 (WSN, H1N1)) (UniProt P15682); assay: co-IP
molecule,measurement,setting,value
V5-tagged WSN NP (from UniProt P15682 1-498),binding,[1],binds
same,binding,[2],binds
same,binding,[3],binds
same,binding,[4],binds
"WSN NP (untagged, pCAGGS-WSNNP) (from UniProt P15682 1-498)",binding,[5],binds
WSN NP in virus-infected A549 cells (from UniProt P15682 1-498),binding,[6],binds
"Flag-MOV10 (protein, UniProt Q9HCE1 1-1003) MPSKFSCRQLREAGQCFESFLVVRGLDMETDRERLRTIYNRDFKISFGTPAPGFSSMLYGMKIANLAYVTKTRVRFFRLDRWADVRFPEKRRMKLGSDISKHHKSLLAKIFYDRAEYLHGKHGVDVEVQGPHEARDGQLLIRLDLNRKEVLTLRLRNGGTQSVTLTHLFPLCRTPQFAFYNEDQELPCPLGPGECYELHVHCKTSFVGYFPATVLWELLGPGESGSEGAGTFYIARFLAAVAHSPLAAQLKPMTPFKRTRITGNPVVTNRIEEGERPDRAKGYDLELSMALGTYYPPPRLRQLLPMLLQGTSIFTAPKEIAEIKAQLETALKWRNYEVKLRLLLHLEELQMEHDIRHYDLESVPMTWDPVDQNPRLLTLEVPGVTESRPSVLRGDHLFALLSSETHQEDPITYKGFVHKVELDRVKLSFSMSLLSRFVDGLTFKVNFTFNRQPLRVQHRALELTGRWLLWPMLFPVAPRDVPLLPSDVKLKLYDRSLESNPEQLQAMRHIVTGTTRPAPYIIFGPPGTGKTVTLVEAIKQVVKHLPKAHILACAPSNSGADLLCQRLRVHLPSSIYRLLAPSRDIRMVPEDIKPCCNWDAKKGEYVFPAKKKLQEYRVLITTLITAGRLVSAQFPIDHFTHIFIDEAGHCMEPESLVAIAGLMEVKETGDPGGQLVLAGDPRQLGPVLRSPLTQKHGLGYSLLERLLTYNSLYKKGPDGYDPQFITKLLRNYRSHPTILDIPNQLYYEGELQACADVVDRERFCRWAGLPRQGFPIIFHGVMGKDEREGNSPSFFNPEEAATVTSYLKLLLAPSSKKGKARLSPRSVGVISPYRKQVEKIRYCITKLDRELRGLDDIKDLKVGSVEEFQGQERSVILISTVRSSQSFVQLDLDFNLGFLKNPKRFNVAVTRAKALLIIVGNPLLLGHDPDWKVFLEFCKENGGYTGCPFPAKLDLQQGQNLLQGLSKLSPSTSGPHSHDYLPQEREGEGGLSLQVEPEWRNEL",binding,[7],binds
"Flag-tagged PLSCR1 (protein, UniProt O15162-1 1-318) MDKQNSQMNASHPETNLPVGYPPQYPPTAFQGPPGYSGYPGPQVSYPPPPAGHSGPGPAGFPVPNQPVYNQPVYNQPVGAAGVPWMPAPQPPLNCPPGLEYLSQIDQILIHQQIELLEVLTGFETNNKYEIKNSFGQRVYFAAEDTDCCTRNCCGPSRPFTLRIIDNMGQEVITLERPLRCSSCCCPCCLQEIEIQAPPGVPIGYVIQTWHPCLPKFTIQNEKREDVLKISGPCVVCSCCGDVDFEIKSLDEQCVVGKISKHWTGILREAFTDADNFGIQFPLDLDVKMKAVMIGACFLIDFMFFESTGSQEQKSGVW",binding,[7],binds
